Article PMC7819943, “Rice protein-binding microarrays: a tool to detect cis-acting elements near promoter regions in rice”
The list shows a part of the results.

target: T1, OsSMF1 (Oryza sativa, UniProt Q6ZLB0 1-436); test: protein-binding microarray (RPBM); PBS, 2% BSA, 51.3 ng/ul salmon testes DNA, 50 uM zinc acetate, 200 nM TF, 25 C, 1 h; high values mean tight binding; conditions: protein: recombinant; tags: N-terminal polyhistidine and DsRed monomer fusion (pET32a); chain copies: 2; label: CyDye5-dUTP incorporated in the synthesized complementary strand; 3' TTTTT single-stranded linker to array surface; dsDNA, one strand shown
T1 sequence: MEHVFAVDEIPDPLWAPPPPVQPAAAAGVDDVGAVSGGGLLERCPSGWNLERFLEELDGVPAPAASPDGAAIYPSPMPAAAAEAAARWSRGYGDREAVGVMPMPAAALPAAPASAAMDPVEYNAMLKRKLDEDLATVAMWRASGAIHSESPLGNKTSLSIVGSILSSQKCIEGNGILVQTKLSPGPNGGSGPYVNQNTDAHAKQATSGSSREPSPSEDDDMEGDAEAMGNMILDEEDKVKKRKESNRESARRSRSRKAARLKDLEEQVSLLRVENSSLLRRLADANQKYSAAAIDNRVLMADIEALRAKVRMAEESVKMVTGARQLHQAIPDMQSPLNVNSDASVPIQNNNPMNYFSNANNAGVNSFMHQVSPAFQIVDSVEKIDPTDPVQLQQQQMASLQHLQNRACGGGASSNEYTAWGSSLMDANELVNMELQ
Outline: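 Per-feature fluorescence intensity (arbitrary units), read on an Axon 4000B scanner, is the binding signal. Transcription factors carrying an N-terminal polyhistidine tag and DsRed fusion were expressed in E. coli BL21-CodonPlus and purified on Ni–NTA. A custom Agilent array, made double-stranded by primer extension with Cy5-dUTP and blocked with 2% BSA, was incubated with 200 nM protein in PBS, 2% BSA, salmon testes DNA and 50 µM zinc acetate at 25 °C for 1 h and then washed.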

Sequence | binding signal
TGGCCGTGCCGTTATAGTTACGACGGCAGACGTGCCGTTACGGAGTCACCTAGTGCAG | 35600 fluorescence intensity (a.u.)
GCCGCTTCGATGCTGGCGGCAGGGTGGGGCGGGGATGCCTCGGAGTCACCTAGTGCAG | 6170 fluorescence intensity (a.u.)
ATTTCAGCGAAAGCTACGTCACGTAGGCACCACGACAGTTCGGAGTCACCTAGTGCAG | 6470 fluorescence intensity (a.u.)
TACTTGTCAAATATTTGGTGGAAATGGTAGGTGTAATGTACGGAGTCACCTAGTGCAG | 3460 fluorescence intensity (a.u.)
TCATACTGCCATCATACCATCCTACAATAGACAAATTTAACGGAGTCACCTAGTGCAG | 54300 fluorescence intensity (a.u.)
CTACTTTCATGCAGGTGTAAAATTCGTGTGACAACTTTGTCGGAGTCACCTAGTGCAG | 5380 fluorescence intensity (a.u.)
AATCGAGAAGTCAAAAGTGACGTAGAGTCCTACTGTATCCCGGAGTCACCTAGTGCAG | 3940 fluorescence intensity (a.u.)
AATTGCTGACAGTACATTAGTGTACTCCATAGGTTCATCTCGGAGTCACCTAGTGCAG | 4440 fluorescence intensity (a.u.)
GTGGTGGTCATCAACTCGTGCATTGCCACCCAGATCTCCACGGAGTCACCTAGTGCAG | 4220 fluorescence intensity (a.u.)
ACGAGGGATGTCCTCTCCCCTCTGTCATCTAGCGCCCGCGCGGAGTCACCTAGTGCAG | 3150 fluorescence intensity (a.u.)
TGACCGCAGACGTGGCATGCCACACAAGCACCAATTTTGCCGGAGTCACCTAGTGCAG | 8620 fluorescence intensity (a.u.)
GACACGTATGATTTGTGTGGTAGTACATAGCACGCACGCACGGAGTCACCTAGTGCAG | 35800 fluorescence intensity (a.u.)
AACTGGAACCCTTAGCCACTGTGAGGTGTACATCTGACAACGGAGTCACCTAGTGCAG | 4990 fluorescence intensity (a.u.)
GCCACCGCTGCATCATCCCGCCTGTCTGCCTGCGCGCGCCCGGAGTCACCTAGTGCAG | 3430 fluorescence intensity (a.u.)
GCACTAGCTAGTTAGATCATAAGGACGACAGAATGTTTGCCGGAGTCACCTAGTGCAG | 38600 fluorescence intensity (a.u.)
GTGCTCTCAATGCTACATCACGAACACACTGTATGTAGTGCGGAGTCACCTAGTGCAG | 3170 fluorescence intensity (a.u.)
GAATCGACGAGCGCTCCCCTCCCCACGTCGCCCTCCCCGACGGAGTCACCTAGTGCAG | 3210 fluorescence intensity (a.u.)
ACTTCTACGGTTCTTACTACGTGTAATTAAGTGGCTGACACGGAGTCACCTAGTGCAG | 3370 fluorescence intensity (a.u.)
GGGACACCTCACCATCATCAGCTTGAGAAATAGGATAGGGCGGAGTCACCTAGTGCAG | 3930 fluorescence intensity (a.u.)
CCACCGACCCCACCGTCCACCCACGCGTCCGCGTCCCGCACGGAGTCACCTAGTGCAG | 3680 fluorescence intensity (a.u.)
GCAAAGGGTCCTCTCCTTGCCAAAATTGGTAGACTTTCATCGGAGTCACCTAGTGCAG | 3600 fluorescence intensity (a.u.)

Sequence | binding signal
CGCGCAGGAGGAGTCGGATGCGGATGACGACGAACGAAAACGGAGTCACCTAGTGCAG | 3570 fluorescence intensity (a.u.)
GTGGAGCATGACTCCACTCATCAGGGTTTAAATTCTGGTACGGAGTCACCTAGTGCAG | 3740 fluorescence intensity (a.u.)
CATTGCCAGCGCCCAGTGGGCCACATCACGTGTGTGGGTTCGGAGTCACCTAGTGCAG | 8480 fluorescence intensity (a.u.)
CAGAGGATCCGCGTCCGCTCATCTGTCATCTCGTTCTTCTCGGAGTCACCTAGTGCAG | 3760 fluorescence intensity (a.u.)
CTCGTCTTGTGCCGTTAGCCCGTTGCGCGTGCGTGCGTGGCGGAGTCACCTAGTGCAG | 6440 fluorescence intensity (a.u.)
GAAATACGCACATGGGGTGGGCGTGCTTCTACCATGCCTCCGGAGTCACCTAGTGCAG | 3280 fluorescence intensity (a.u.)
TTTCAAACCATTGGCAGGCTTCCACGCATGCATGTCTCTCCGGAGTCACCTAGTGCAG | 5830 fluorescence intensity (a.u.)
GATAGTAAAATTATTCCTACGTGAGTATGTATTTACCTTGCGGAGTCACCTAGTGCAG | 3470 fluorescence intensity (a.u.)
AAACCGTCGTGCCAGACTCTTTTGATGACGTGCGGAGCATCGGAGTCACCTAGTGCAG | 3820 fluorescence intensity (a.u.)
AACTCCTCTGCGGCCGCCACGTGTGAGCGCCGCCATCATCCGGAGTCACCTAGTGCAG | 7630 fluorescence intensity (a.u.)
GAGCCGTCCAGCTGCCGCGGCCCTCCTCCACCACCGTCCCCGGAGTCACCTAGTGCAG | 3240 fluorescence intensity (a.u.)
GCACCTACCTACACCTCCCTGCCGACCAACAACCCTGAGCCGGAGTCACCTAGTGCAG | 28300 fluorescence intensity (a.u.)
TCTTGCCTTCTTGCCCTCCACACTGTCCACGTCTCTCCAACGGAGTCACCTAGTGCAG | 4650 fluorescence intensity (a.u.)
TGTTTGTAAAGTAGAGCGTGCATGTGTGCGTTCTTAAGGTCGGAGTCACCTAGTGCAG | 3590 fluorescence intensity (a.u.)
CGTCACGCCCGATTGCCATCCCTACCACCCATACACAATTCGGAGTCACCTAGTGCAG | 3690 fluorescence intensity (a.u.)
TCTCACTCTACCACTTGTCTACTCCGCAGCCCAATAACCACGGAGTCACCTAGTGCAG | 3170 fluorescence intensity (a.u.)
AGGATGTGTCAAACGTGAGTTGCCAGTTCACCGCCGCCGACGGAGTCACCTAGTGCAG | 3520 fluorescence intensity (a.u.)
GCAGACGGCGCGGTCGACCCACCGTCTGCCACGTCAGCTTCGGAGTCACCTAGTGCAG | 37200 fluorescence intensity (a.u.)
TCCACGTCACCCCATTCTGTCTCCATCATTCGATCTCAATCGGAGTCACCTAGTGCAG | 10300 fluorescence intensity (a.u.)
CGTTGGCCACATCCGCCCTCCCCTATCAGTGATGTGGAACCGGAGTCACCTAGTGCAG | 5950 fluorescence intensity (a.u.)
TTATGAAGGAAATGTCCGCGTACGCGTGGGCATGCCACGTCGGAGTCACCTAGTGCAG | 6700 fluorescence intensity (a.u.)

Not a retest: entries from further up.
Sequence | binding signal
GATAGTAAAATTATTCCTACGTGAGTATGTATTTACCTTGCGGAGTCACCTAGTGCAG | 3470 fluorescence intensity (a.u.)
AAACCGTCGTGCCAGACTCTTTTGATGACGTGCGGAGCATCGGAGTCACCTAGTGCAG | 3820 fluorescence intensity (a.u.)
